No constants are given. Whether binding was seen depends on the method and setting. Binding seen in cells or lysates may run through a third protein. Here binding means that the protein was enriched with, or labelled near, the bait; the list need not be complete.
Molecular target: GFP-Znf684 (human) (UniProt Q5T5D7)
Experiment: affinity purification with mass spectrometry

Amino acid sequences for entries named in this document (tags omitted).
UniProt Q5T5D7: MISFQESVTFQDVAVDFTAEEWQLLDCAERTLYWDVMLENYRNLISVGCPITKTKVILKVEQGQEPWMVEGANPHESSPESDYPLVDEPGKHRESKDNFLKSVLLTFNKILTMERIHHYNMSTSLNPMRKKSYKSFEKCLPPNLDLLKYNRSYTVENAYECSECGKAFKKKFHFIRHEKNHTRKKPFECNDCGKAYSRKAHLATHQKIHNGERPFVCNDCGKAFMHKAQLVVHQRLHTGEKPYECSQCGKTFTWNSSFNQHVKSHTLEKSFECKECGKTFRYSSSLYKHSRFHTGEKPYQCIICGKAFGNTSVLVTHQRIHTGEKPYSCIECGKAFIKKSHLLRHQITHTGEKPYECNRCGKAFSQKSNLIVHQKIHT

- binding: binds
B1: Pabpn1 (protein, UniProt Q86U42 1-306)
chain: MAAAAAAAAAAGAAGGRGSGPGRRRHLVPGAGGEAGEGAPGGAGDYGNGLESEELEPEELLLEPEPEPEPEEEPPRPRAPPGAPGPGPGSGAPGSQEEEEEPGLVEGDPGDGAIEDPELEAIKARVREMEEEAEKLKELQNEVEKQMNMSPPPGNAGPVIMSIEEKMEADARSIYVGNVDYGATAEELEAHFHGCGSVNRVTILCDKFSGHPKGFAYIEFSDKESVRTSLALDESLFRGRQIKVIPKRTNRPGISTTDRGFPRARYRARTTNYNSSRSRFYSGFNSRPRGRVYRGRARATSWYSPY

From doi:10.1101/2021.09.29.462476
